Some of these results come from one statement about several compounds together.
System: AEA uptake in U937 cells
Assay: AEA uptake inhibition in U937 cells
Assay type: cell-based
Protocol: Based on the natural product (2E,4E)-N-isobutylamidedodeca-2,4-dienamide from the medicinal plant E. purpurea as a starting point, a library of 634 of analogs and derivatives with varying alkyl chain length was synthesized, and structure of the head group moiety analyzed. All new derivatives were tested for AEA uptake inhibition in U937 cells using a high-content screening assay.
All radioactivity-based AEA and 2-AG uptake and release assays performed in U937, and HMC-1 cells were carried out using two different assay formats as previously reported. AEA and 2-AG uptake assay in Neuro2a and primary mouse cortical neurons were performed with a different method disclosed in Chicca 2017.

`CCCCCCC/C=C/C=C/C(=O)NCCc1ccc2c(c1)OCCO2` [N-(2,3-dihydro-1,4-benzodioxin-6-yl)ethyl dodeca-2E,4E-dienamide] was tested, and the “selectivity for AEA uptake over FAAH / AEA hydrolysis” value was 60- to 110 fold.
